Data as given in PubChem BioAssay AID1259327 (Drosophila RNAi Screening Center, 2017)
Assay: 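Baseline ATP after transmembrane-protein gene knock-down with water vehicle only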. Cells: Drosophila S2R+ cells. Reagent: long dsRNA against Drosophila genes. Time to read-out: 5 days (water added on day 4, read one day later). Treatment: water added as vehicle, no metal, one day before read-out. Read-out: 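Luciferase ATP signal per well, normalised to plate mean, duplicate average converted to z-score across plates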. Direction: ATP z-score: higher = more total ATP than typical wells; ATP luminescence: higher = more total ATP. Hit rule: 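a hit is any knock-down whose absolute ATP z-score is greater than 1.5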. Calls: active = hit: ATP up or down; inactive = no clear ATP change.
The deposit covers about 3,100 reagents; this is a random part of them. 378 of all reagents (12%) count as active. 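Hits include both directions; z-score sign shows ATP rise or fall; raw luminescence values are not plate-normalised.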 A plus sign joins genes that one reagent is predicted to hit. No sequences are given here. Not given: the amount of reagent.

| target gene | dsRNA | ATP z-score, duplicate mean | ATP luminescence, replicate 1 (RLU) | ATP luminescence, replicate 2 (RLU) | activity call |
| --- | --- | --- | --- | --- | --- |
| CR33013 | DRSC06286 | -0.602 | 5.43e5 | 5.87e5 | inactive |
| CR33013 | DRSC25681 | -1.16 | 6.98e5 | 6.70e5 | inactive |
| Ir60a | DRSC04212 | 0.485 | 7.88e5 | 7.67e5 | inactive |
| Ir60a | DRSC39476 | -1.43 | 3.73e5 | 3.45e5 | inactive |
| Cse1 | DRSC26857 | -0.428 | 6.86e5 | 7.53e5 | inactive |
| gogo | DRSC10070 | 1.81 | 1.22e6 | 1.05e6 | active |
| gogo | DRSC10071 | 0.232 | 7.34e5 | 8.03e5 | inactive |
| Eglp4 | DRSC04438 | -0.0841 | 7.20e5 | 7.15e5 | inactive |
| Eglp4 | DRSC25991 | 0.98 | 9.69e5 | 9.75e5 | inactive |
| sei | DRSC29359 | -0.0232 | 7.08e5 | 9.21e5 | inactive |
| VhaM9.7-d | DRSC15028 | -0.0892 | 2.86e5 | 7.75e5 | inactive |
| CG42638 + Trpml | DRSC11032 | -1.52 | 5.37e5 | 6.02e5 | active |
| CG42638 + Trpml | DRSC39630 | 0.321 | 4.50e5 | 5.25e5 | inactive |
| hoe1 | DRSC00265 | 0.773 | 5.09e5 | 5.59e5 | inactive |
| hoe1 | DRSC00353 | -1.21 | 5.95e5 | 6.01e5 | inactive |
| CG14196 | DRSC19551 | 0.397 | 7.88e5 | 7.83e5 | inactive |
| CG14196 | DRSC26030 | -0.0796 | 8.22e5 | 8.59e5 | inactive |
| CG1636 | DRSC18111 | -1.13 | 6.13e5 | 5.66e5 | inactive |
| CG11537 | DRSC08200 | 0.181 | 7.23e5 | 7.78e5 | inactive |
| CG11537 | DRSC39579 | -0.341 | 4.15e5 | 4.70e5 | inactive |
| Spg7 | DRSC18469 | 0.333 | 6.27e5 | 7.17e5 | inactive |
| Spg7 | DRSC39600 | -0.281 | 3.98e5 | 4.96e5 | inactive |
| ppk25 | DRSC04973 | -1.09 | 5.49e5 | 4.93e5 | inactive |
| ppk25 | DRSC27513 | 1.56 | 9.31e5 | 9.54e5 | active |
| VhaAC45RP | DRSC15423 | 0.826 | 7.91e5 | 8.36e5 | inactive |
| VhaAC45RP | DRSC26986 | -1.54 | 8.99e5 | 1.16e6 | active |
| CG17321 | DRSC02598 | 0.0967 | 7.28e5 | 7.45e5 | inactive |
| CG17321 | DRSC25649 | 0.103 | 9.07e5 | 7.70e5 | inactive |
| dome | DRSC19583 | 1.39 | 8.74e5 | 8.24e5 | inactive |
| dome | DRSC36979 | 1.62 | 6.79e5 | 7.56e5 | active |
| dome | DRSC36980 | 2.01 | 8.00e5 | 6.99e5 | active |
| CG31793 | DRSC02605 | -0.0952 | 6.77e5 | 7.54e5 | inactive |
| CG31793 | DRSC24308 | 0.0781 | 1.03e6 | 6.56e5 | inactive |
| PIG-O | DRSC06123 | 0.593 | 7.69e5 | 8.20e5 | inactive |
| PIG-O | DRSC39439 | 0.771 | 5.63e5 | 4.48e5 | inactive |
| EloA | DRSC16109 | -0.552 | 7.14e5 | 5.86e5 | inactive |
| EloA | DRSC23920 | 2.79 | 1.30e6 | 1.09e6 | active |
| Gr92a | DRSC21631 | 0.447 | 5.31e5 | 7.06e5 | inactive |
| Gr92a | DRSC39582 | 0.975 | 4.81e5 | 5.84e5 | inactive |
| pasi2 | DRSC16380 | 1.18 | 3.11e5 | 9.97e5 | inactive |
| pasi2 | DRSC39713 | -1.32 | 3.36e5 | 4.16e5 | inactive |
| CG8195 | DRSC07103 | -0.334 | 6.98e5 | 6.92e5 | inactive |
| Inx7 | DRSC18784 | -0.468 | 7.99e5 | 7.25e5 | inactive |
| Inx7 | DRSC24113 | 2.27 | 1.15e6 | 1.11e6 | active |
| Tango5 | DRSC18023 | -0.932 | 6.26e5 | 5.94e5 | inactive |
| Tango5 | DRSC25500 | -0.647 | 7.68e5 | 7.24e5 | inactive |
